## Screening data, single-dose tests

By UniProt entry, the sequences of proteins in these tests, tags left out. Residues count along the entry.
UniProt A4I591, 1-473: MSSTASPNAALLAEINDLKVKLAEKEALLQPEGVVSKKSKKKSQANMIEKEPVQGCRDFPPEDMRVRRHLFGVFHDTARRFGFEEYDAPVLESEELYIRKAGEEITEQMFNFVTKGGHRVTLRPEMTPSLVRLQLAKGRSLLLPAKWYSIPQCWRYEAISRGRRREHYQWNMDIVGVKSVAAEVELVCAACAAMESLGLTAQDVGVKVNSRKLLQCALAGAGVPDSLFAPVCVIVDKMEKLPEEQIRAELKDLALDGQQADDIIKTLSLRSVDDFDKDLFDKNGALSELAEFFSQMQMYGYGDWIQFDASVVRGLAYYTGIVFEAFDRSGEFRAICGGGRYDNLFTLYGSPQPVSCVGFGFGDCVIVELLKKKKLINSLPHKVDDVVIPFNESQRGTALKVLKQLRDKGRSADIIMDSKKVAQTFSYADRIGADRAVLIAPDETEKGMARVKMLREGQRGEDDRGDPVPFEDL

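Enzyme assay of histidyl-tRNA synthetase; the read-out is not stated. Target: Histidine-tRNA ligase, Leishmania infantum (UniProt A4I591). Tested at 30 µM. Direction is inferred from retests: higher values go with stronger inhibition. The assay is labelled LdHisRS but filed under L. infantum. Size under these conditions: about 69,000 compounds, about 410 of them at 50% or above in at least one test.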

The filed quantity is “Percent Effect” (%). How 0% and 100% were set is not recorded. Most values in the screen are low, and negative values occur. Compounds were drawn at random from those tested, without regard to their results.

structure,percent effect
Cc1nn(C)c(N2CCOCC2)c1CNC1CCCCNC1=O (stereo not shown),5.208%
O=C1CN(CCCNS(=O)(=O)c2cccc(C(=O)NC3CC3)c2)CCN1,13.33%
O=C(NCc1ccccn1)c1cnc(C2CCCN2)cn1 (stereo not shown),11.35%
Cc1cccc(C(=O)N2CCn3cc(CNC(=O)CC4CC4)nc3C2)n1,11.76%
Cc1cc(C(F)(F)F)nc(CCNC(C)Cn2nc(C)cc2C)n1 (stereo not shown),7.692%
CCc1cnc(CN(C(C)=O)C2CCN(CCc3cccs3)C2)o1 (stereo not shown),16.67%
O=C(c1ccon1)N1CCc2ncnc(NCc3ccccn3)c2CC1,3.333%
CC(C)COCCC(=O)NCCC(=O)N1CCN(c2ccccn2)CC1,6.742%
COc1ccnc(NCC2CN(C3CC3)CCO2)n1 (stereo not shown),14.29%
Cc1nc2ccc(C(=O)N3C[C@@H](O)[C@H](N4CCN(C)CC4)C3)cc2[nH]1,1.053%
CCOc1ccccc1OC1CCN(C(=O)c2cc[nH]n2)CC1,20%
CN1CCN(C(=O)c2csnn2)c2ccccc21,4%
Cc1cnn(CC2CCCN2CC(=O)Nc2cc(C)on2)c1 (stereo not shown),5.128%
NS(=O)(=O)c1cnc(NCC2(c3ccccc3)CCC2)s1,13.79%
CCOC(=O)NC(C(=O)NCc1ccc(N2CCCCC2)nc1)C(C)C (stereo not shown),16.67%
CN(Cc1ccccc1)S(=O)(=O)N1C[C@@H](C(=O)O)[C@H](C2CC2)C1,-1.333%
CN(C)c1cc2c(nn1)CCN(C(=O)Cc1ccc3c(c1)CCO3)C2,20.18%
CCN1CC(COC(=O)c2cc(Br)ccc2F)CC1=O (stereo not shown),0%
CCO[C@@H]1CC[C@H]2[C@H]1OCCN2CC1CCOCC1,22.22%
O=S1(=O)NCC2(CCN(c3ncc(F)cn3)CC2)COc2ccccc21,17.24%
CC(=O)c1c(F)cccc1NCC(O)C1CC1 (stereo not shown),5.263%
COc1cccc(CC(=O)N2CC[C@@H]3CN(C)S(=O)(=O)[C@@H]3CC2)c1,11.54%
CS(=O)(=O)N1C[C@@H]2CC[C@H](C1)N(Cc1cscn1)C2=O,15.24%
CCc1ncc(C(=O)N2CCn3c(CC)nnc3C2)s1,16.13%
COc1cc(Cl)cc(CN2CCCC(N3CCCC3)C2)c1OC (stereo not shown),20%
N#Cc1cccc(CN2CCC3(CC2)CC(c2ccncc2)C(=O)N3)c1 (stereo not shown),18.18%
Cc1cccc(OCCCNC(=O)NC(C)c2nncn2C)c1 (stereo not shown),14.88%
Cc1nc(-c2ccc(Cl)s2)sc1C(=O)O,16.88%
CCc1ncc(C(=O)NC(C)(C)C(=O)OC)s1,-0.8403%
Cc1noc(C)c1CN1C[C@@H]2CC[C@H](C1)N(Cc1cc(F)cc(F)c1)C2,24.66%
c1ccc(CCNC2CCc3ncnn3C2)nc1 (stereo not shown),25%
CC[C@H](C)Nc1ncc(-c2cccc(NC(=O)CNC)c2)cn1,25.71%
COCCN1CCC12CCN(C(=O)c1ccsc1)CC2,18.8%
COCC(=O)N1CCc2ncc(Cn3cncn3)n2CC1,16%
CCc1nnc2n1CCN(C(=O)c1ccc3c(c1)nnn3C)C2,16.05%
COCCn1cnc2ccc(NC(=O)CCCn3cccn3)cc2c1=O,17.39%
CC(=O)N1CCCCCC1C1CCN(c2ncccc2C#N)CC1 (stereo not shown),14.29%
CCN(C)C(=O)c1ncn2c(C3CCN(S(C)(=O)=O)CC3)ccnc12,10.26%
CN1CCOC(CNCc2csc(C3CCCCC3)n2)C1 (stereo not shown),25%
CC(C)N1CCC(CC(=O)NC(C(=O)O)c2cc(F)ccc2F)CC1 (stereo not shown),19.44%
Cc1ncc(CC(=O)N2CCC3(CCC(=O)N(CCO)C3)CC2)c(=O)[nH]1,15.79%
Cc1cccc(CN2CCN(C(=O)[C@@H]3CSCN3C)CC2)c1,2.74%
COCC(NC(=O)NCc1cccc(C#N)c1)c1ccco1 (stereo not shown),9.948%
Cc1nn2cc(CNc3nccc(CCC(F)(F)F)n3)nc2s1,7.229%
O=C(C1CN(CC2CC2)CC12CCOCC2)N1CCOCC1 (stereo not shown),14%
CN(Cc1ccco1)C(=O)C1CCCc2ccccc21 (stereo not shown),5.357%
O=C(CC1CCCC1)NCCS(=O)(=O)N1CCN(c2ncccn2)CC1,14.67%
COc1ncccc1CN1CC[C@H]2O[C@H](c3nnc(C)o3)CC[C@H]21,0%
O=C(Cn1cc(C(=O)O)cn1)Nc1c(Cl)cccc1Cl,-12.07%
CN(C)c1ncc2c(n1)N(C)CCN(CC1CC1)C2=O,11.43%
CCS(=O)(=O)N1CCC2(CC(=O)N(c3ccc4c(c3)OCO4)C2)C1 (stereo not shown),-8.571%
Cc1ccc(NC2CCN(C(=O)CCOCC(F)(F)F)CC2)nn1,12.28%
CSc1ccc(NC(=O)NCc2nncn2C2CC2)cc1F,12.5%
COc1ccc(-c2noc(C(CC(C)C)N3CCCCC3=O)n2)cn1 (stereo not shown),12.82%
Cc1cc(NC(=O)NCc2ccc(C)s2)no1,14.29%
CCS(=O)(=O)NC(CCSC)C(=O)Nc1cc(F)ccc1C (stereo not shown),22.22%
CC(C)N1CCC(C(=O)N2CCC(c3ccc(F)cc3)C2)CC1 (stereo not shown),18.42%
CN1CCC(N2Cc3nc(N)ncc3C2=O)CC1,15.52%
CSCCc1c(-c2ccccc2)ncn1CC(C)(C)N1CCOCC1,8.511%
COc1ccc(CN2CCC(c3nnc(-c4scnc4C)o3)CC2)cc1,21.74%
O=C(COc1ccc2c(c1)CCC2)NS(=O)(=O)c1cccnc1,9.174%
CC(C)c1nncn1CCNC(=O)c1ccc(Cl)cc1O,18.68%
CCSC1(CNc2ncc(Br)cn2)CCOCC1,13.7%
CC(C)(C)OC(=O)N[C@@H]1C[C@@H](O)CN(C(=O)c2cccc(F)c2)C[C@H]1O,17.02%
Fc1cnc(N2CCO[C@H]3[C@H](OCCN4CCCC4)CC[C@@H]32)nc1,2.703%
CCOc1c(Br)cc(CNCCc2nnc3n2CCCCC3)cc1OC,25.64%
CNC(=O)c1ccc(CN2CCN(C3=NCC(C)(C)S3)CC2)cc1,-4.348%
CN(C)CCOCc1nnc2n1CCN(Cc1cccs1)CC2,-2.778%
CC(C)CNC(=O)CCN1C(=O)CCc2cc(F)ccc21,17.14%
O=C(Cc1cn2ccsc2n1)N1CCOCC(O)(CN2CCCC2)C1 (stereo not shown),22.39%
COc1cccc(COCC(=O)N2CCCC(n3cncn3)C2)c1 (stereo not shown),2.632%
CC(C)c1nccn1-c1cccc(C2CCCN(S(=O)(=O)N(C)C)C2)n1 (stereo not shown),10.14%
O=C(CC1CC1)N1C[C@H]2CN(CC3CC3)C(=O)[C@H]2C1,9.709%
CN(CC(=O)N1CCC(COc2ccccc2)CC1)c1cnccn1,22.02%
CC(C)CS(=O)(=O)CCNC(=O)Nc1cccc2ncccc12,20.97%
Cn1cc(CN2CCC(c3cc(CCO)[nH]n3)C2)cn1 (stereo not shown),5.755%
CC1CCN(CC(O)CNc2ccc(Cl)cn2)CC1 (stereo not shown),19.18%
CC(NC(=O)NCCOc1ccc(F)c(F)c1)c1nncn1C (stereo not shown),18.67%
Cc1cc(S(=O)(=O)N2CCCc3ccc(F)cc32)sc1C(=O)O,24.27%
Cc1cc(C(=O)N2CCC(n3nc(C)cc3C)C2)c2ccc(F)cc2n1 (stereo not shown),12.94%
CCOc1ccc(NC(=O)N(CCC#N)Cc2ccccn2)cc1F,0%
CCc1c(C)nn(CCN2CC3(CCOC3)CCC2=O)c1C (stereo not shown),15.5%
CCCc1nnc(N2CCN(c3ccccc3Cl)CC2)o1,11.7%
CC(C)N1CC(C(=O)NCCOc2ccc3c(c2)OCO3)CC1=O (stereo not shown),28.79%
Cc1nc(CN2CC[C@H]3[C@@H]2CCC(=O)N3c2cnn(C)c2)cs1,0%
O=C(CCN1C(=O)CCC1=O)Nc1ccc(OCC(F)(F)F)nc1,11.29%
CCn1cc(CN(C)C(=O)c2cccc(CCC(C)(C)O)c2)cn1,12.62%
Cc1cc(C2CCCN2C(=O)c2cc3c(s2)CCC3)on1 (stereo not shown),28%
CC(C)(CO)CCCNC(=O)NC1(C)Cc2ccccc2C1,2.041%
CCC(c1ccccc1)S(=O)(=O)CCO (stereo not shown),20%
Cc1nc2n(n1)CC(NCCC(=O)Nc1cc(C)on1)CC2 (stereo not shown),9.091%
Cc1ccc(OC2(C(=O)O)CCN(C(=O)c3ccccc3F)CC2)cn1,8.333%
CSCC(=O)NS(=O)(=O)c1ccc(C#N)c(C(F)(F)F)c1,7.317%

For reference, 8 entries once more:

{"structure": "CC(C)c1nccn1-c1cccc(C2CCCN(S(=O)(=O)N(C)C)C2)n1", "stereo": "stereo not shown", "percent effect": 10.14}
{"structure": "O=C(c1ccon1)N1CCc2ncnc(NCc3ccccn3)c2CC1", "percent effect": 3.333}
{"structure": "Cc1nn2cc(CNc3nccc(CCC(F)(F)F)n3)nc2s1", "percent effect": 7.229}
{"structure": "CCS(=O)(=O)NC(CCSC)C(=O)Nc1cc(F)ccc1C", "stereo": "stereo not shown", "percent effect": 22.22}
{"structure": "CCS(=O)(=O)N1CCC2(CC(=O)N(c3ccc4c(c3)OCO4)C2)C1", "stereo": "stereo not shown", "percent effect": -8.571}
{"structure": "Cc1nc2n(n1)CC(NCCC(=O)Nc1cc(C)on1)CC2", "stereo": "stereo not shown", "percent effect": 9.091}
{"structure": "CN(C)c1cc2c(nn1)CCN(C(=O)Cc1ccc3c(c1)CCO3)C2", "percent effect": 20.18}
{"structure": "Cc1nc(-c2ccc(Cl)s2)sc1C(=O)O", "percent effect": 16.88}

Data taken from ChEMBL document CHEMBL3988442, “University of Dundee, Small-Polar-MMV Screening Library” (2021).